# Test results from the supplement of paper PMC10382679.
# Single values of this set are uncertain.
# B1: Rpb7; numbered along this chain (parent)
# chain: MFFIKDLSLNITLHPSFFGPRMKQYLKTKLLEEVEGSCTGKFGYILCVLDYDNIDIQRGRILPTDGSAEFNVKYRAVVFKPFKGEVVDGTVVSCSQHGFEVQVGPMKVFVTKHLMPQDLTFNAGSNPPSYQSSEDVITIKSRIRVKIEGCISQVSSIHAIGSIKEDYLGAI
# Key:
# [1] = variants of: B1; experiment: log2 fold change of mutant abundance, UV-irradiated vs unirradiated; higher = more UV resistant (enriched after UV); conditions: with Saccharomyces cerevisiae rad7Δ rad26Δ; UV dose (J/m2): 10; genetic background: rad7Δ rad26Δ rpb7Δ + plasmid RPB7 library; outgrowth: 10 cell divisions
# [2] = variants of: B1; experiment: NOISeq theta enrichment statistic, UV-irradiated vs unirradiated (dimensionless); higher = more UV resistant (enriched after UV); conditions: with Saccharomyces cerevisiae rad7Δ rad26Δ; UV dose (J/m2): 10; genetic background: rad7Δ rad26Δ rpb7Δ + plasmid RPB7 library; outgrowth: 10 cell divisions
Variant,log2 fold change of mutant abundance [1],NOISeq theta enrichment statistic [2]
S125F,0.0142,0.0157
N71G,-0.844,-0.443
N71M,0.378,0.335
V101K,0.0899,0.0834
K164Y,0.547,0.395
K164T,0.277,0.487
K164L,1.04,0.52
V103A,-0.085,-0.205
V103N,0.025,0.0188
D50V,0.0505,0.117
S152V,-0.566,-0.333
K23R,0.0372,0.168
K23S,-0.182,-0.188
G89N,-0.266,-0.228
G89S,0.00726,0.0189
Q24Y,-0.00922,-0.0073
Y130F,0.0555,0.224
D52C,0.149,0.109
H14Q,-0.165,-0.594
E35L,-0.461,-0.223
C47I,-0.191,-0.167
C47G,-0.243,-0.267
D88Q,0.38,0.228
D88A,-0.144,-0.359

Variant,log2 fold change of mutant abundance [1],NOISeq theta enrichment statistic [2]
Q131P,0.0693,0.14
T90M,0.157,0.158
T90N,-0.0984,-0.172
T90V,0.451,0.333
F82Y,0.0676,0.327
E85Y,-0.361,-0.334
E85G,-0.064,-0.222
A68S,0.114,0.406
A68F,0.4,0.294
N10T,0.00365,0.0065
N10H,-0.0542,-0.0806
R75S,-0.0886,-0.531
G98W,0.0229,0.0798
C150G,-0.184,-0.273
G161C,-0.00641,-0.0126
C94M,0.0367,0.0207
C94V,-0.0244,-0.0509
S132M,-0.227,-0.175
I160V,-0.259,-0.839
I160F,0.0288,0.0811
Y25C,0.193,0.526
S156L,-0.296,-0.156
E69S,0.238,0.251
E100K,-0.0329,-0.168

Variant,log2 fold change of mutant abundance [1],NOISeq theta enrichment statistic [2]
I56L,0.0361,0.0432
V72I,-0.115,-0.0945
S67Y,-0.00106,-0.00276
S37A,0.086,0.144
V86I,-0.101,-0.394
V86D,0.24,0.253
K146T,0.118,0.221
K146Q,0.25,0.344
L9R,-0.00302,-0.00582
K140D,1.26,0.903
I143N,-0.0997,-0.153
P116A,-0.0616,-0.133
Y74L,0.149,0.167
Y74H,-0.00398,-0.00569
Y74S,-0.0187,-0.0418
H158T,-0.518,-0.317
K83S,-0.148,-0.124
K83G,0.206,0.203
A159R,0.0801,0.0661
G59C,0.429,0.312
G59S,-0.141,-0.103
I171N,-0.196,-0.39
P15T,-0.139,-0.227
P15S,0.153,0.331

Variant,log2 fold change of mutant abundance [1],NOISeq theta enrichment statistic [2]
L49R,-0.403,-0.445
L49S,-0.0751,-0.0441
L31W,-0.00348,-0.00568
I163M,-0.0674,-0.0712
Y51M,-0.0798,-0.0916
Y51H,-0.000122,-0.000295
L119R,0.0389,0.0293
L119G,0.081,0.0554
A76C,-0.312,-0.227
R58C,0.0232,0.0957
R58V,0.232,0.241
L46Y,0.0414,0.0261
L7I,0.199,0.39
G19S,0.0394,0.111
Q96T,0.0675,0.289
T28Q,-0.126,-0.136
Q117K,-0.0457,-0.205
Q117N,-0.0756,-0.0685
Q117D,0.545,0.294
Q117I,-0.406,-0.26
A123G,-0.07,-0.118
A123C,0.213,0.185
A123T,-0.00286,-0.00834
I137L,0.264,0.354

Variant,log2 fold change of mutant abundance [1],NOISeq theta enrichment statistic [2]
F18S,-0.373,-1.22
E165G,-0.637,-0.943
I11M,-0.283,-0.334
S129P,-0.232,-0.388
S129Y,-0.129,-0.113
I139K,-0.203,-0.739
I139E,-0.572,-0.296
I139H,0.0485,0.0366
V78L,-0.0617,-0.0778
V78G,-0.0432,-0.186
V78S,0.177,0.153
F17C,-0.199,-0.378
N126K,0.117,0.346
N126T,0.0698,0.177
D55I,0.0701,0.0842
V108D,0.231,0.25
E32L,-0.954,-0.605
K107Y,0.331,0.277
M106F,-0.102,-0.0682
V87C,0.185,0.134

# Shown tab-delimited: entries from further up
Variant	log2 fold change of mutant abundance [1]	NOISeq theta enrichment statistic [2]
N126K	0.117	0.346
N126T	0.0698	0.177
D55I	0.0701	0.0842
V108D	0.231	0.25
